PubChem BioAssay AID686937 – Drosophila RNAi Screening Center, 2013

Test: 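Genes whose loss weakens secretory pathway function in fly cells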 (primary screen)
System: Drosophila S2 cells expressing secreted horseradish peroxidase
Reagent: long dsRNA against Drosophila genes
Timing: about 5.5 days (5 days dsRNA, then 12 h reporter induction)
Challenge: reporter expression induced after 5 days of dsRNA, read 12 h later; inducer not stated
Detection: 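Chemiluminescent measurement of peroxidase in the medium 12 h after reporter induction, following 5 days of dsRNA, given as a z-score per plate; higher means more secretion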
Direction: z-score: higher = more reporter secreted into medium
The screen tested about 23,000 reagents; below is an unselected part of those with a known target gene and a result. 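Reduced-secretion tags in replicate 1 do not always agree with the z-scores; no criterion for assigning the tags was given.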 The numbers tell different reagents against one gene apart. A plus sign joins genes that one reagent is predicted to hit. Not given: the amount of reagent.

| predicted target | reagent | z-score, replicate 1 | z-score, replicate 2 | z-score, replicate 3 | z-score, replicate 4 | phenotype, replicate 1 |
| --- | --- | --- | --- | --- | --- | --- |
| CG15353 | 1 | 0.41 | 0.48 | 0.64 | 0.32 | – |
| Rbp1-like | 1 | 0.36 | 0.52 | – | – | – |
| Rbp1-like | 2 | 0.72 | 0.27 | – | – | – |
| Rbp1-like | 3 | -0.25 | -0.07 | – | – | – |
| CG11583 | 1 | -0.2 | -0.79 | – | – | – |
| sloth2 + sloth1 | 1 | 0.09 | 0.08 | – | – | – |
| sloth2 + sloth1 | 2 | 0.3 | 0.44 | – | – | – |
| CG16717 | 1 | 0.29 | 0.44 | – | – | – |
| Parg | 1 | 0.12 | 0.17 | – | – | – |
| Con | 1 | 0.52 | 0.35 | – | – | – |
| mRpL52 | 1 | 0.24 | 0.14 | – | – | – |
| CG40551 (retired record) | 1 | 0.63 | 0.35 | – | – | – |
| CG3544 | 1 | 0.1 | 0.33 | – | – | – |
| CG7778 | 1 | -0.07 | 0.31 | – | – | – |
| Hecw | 1 | 0.44 | 0.56 | – | – | – |
| Hecw | 2 | 0.35 | 0.77 | – | – | – |
| CG14572 | 1 | 0.36 | 0.11 | – | – | – |
| gprs | 1 | -0.03 | 0.17 | – | – | – |
| CG14965 | 1 | 0.33 | 0.46 | – | – | – |
| ftz-f1 | 1 | 0.62 | 0.07 | – | – | – |
| thw | 1 | 0.3 | 0.31 | – | – | – |
| CG14818 | 1 | 0.06 | 0.3 | – | – | – |
| CG12868 | 1 | 0.27 | 0.4 | – | – | – |
| Dredd | 1 | 0.05 | 0.07 | – | – | – |
| CG3021 | 1 | 0.44 | 0.39 | – | – | – |
| CG3021 | 2 | 0.52 | 0.5 | – | – | – |
| CG15539 | 1 | 0.38 | 0.33 | – | – | – |

Continued; the last 5 above are carried over.
| predicted target | reagent | z-score, replicate 1 | z-score, replicate 2 | z-score, replicate 3 | z-score, replicate 4 | phenotype, replicate 1 |
| --- | --- | --- | --- | --- | --- | --- |
| CG12868 | 1 | 0.27 | 0.4 | – | – | – |
| Dredd | 1 | 0.05 | 0.07 | – | – | – |
| CG3021 | 1 | 0.44 | 0.39 | – | – | – |
| CG3021 | 2 | 0.52 | 0.5 | – | – | – |
| CG15539 | 1 | 0.38 | 0.33 | – | – | – |
| PolZ1 | 1 | 0.28 | 0.1 | – | – | – |
| CG12448 | 1 | -0.24 | -0.01 | – | – | – |
| Hsf | 1 | 0.24 | 0.31 | – | – | – |
| CG12994 | 1 | 0.36 | -0.48 | – | – | – |
| CG12994 | 2 | -0.45 | -0.45 | – | – | – |
| Samuel | 1 | 0.26 | 0.24 | – | – | – |
| Samuel | 2 | 0.2 | -0.47 | – | – | – |
| Samuel | 3 | -0.07 | 0.45 | – | – | – |
| Samuel | 4 | -0.77 | -0.29 | – | – | – |
| Ac3 | 1 | 0.13 | 0.23 | – | – | – |
| me31B | 1 | -1.68 | -1.3 | – | – | reduced secretion |
| Hrb98DE | 1 | -0.19 | -0.09 | – | – | – |
| CG31029 | 1 | -0.02 | -1.01 | – | – | – |
| Or33a | 1 | 0.6 | 0.5 | – | – | – |
| CG34135 + CG11768 | 1 | 0.02 | -0.21 | – | – | – |
| NiPp1 | 1 | 0.12 | 0.19 | – | – | – |
| Him | 1 | -0.08 | -0.05 | – | – | – |
| Uba3 | 1 | 0.13 | 0.29 | – | – | – |
| CG11889 + CG11891 | 1 | 0.28 | 0.29 | – | – | – |
| CG11889 + CG11891 | 2 | 0.45 | 0.37 | – | – | – |
| fh | 1 | 0.48 | 0.07 | – | – | – |
| heca | 1 | -1.58 | -2.01 | – | – | reduced secretion |
| cag | 1 | 0.3 | 0.34 | – | – | – |
| CG32971 | 1 | -0.31 | 0.32 | – | – | – |
| raskol | 1 | 0.57 | -1.16 | – | – | – |
| raskol | 2 | 0.34 | 0.59 | – | – | – |
| raskol | 3 | 0.29 | 0.23 | – | – | – |
| raskol | 4 | -2.68 | -0.92 | – | – | – |
| raskol | 5 | -0.67 | -0.48 | – | – | – |
| CG10903 | 1 | 0.01 | -1.07 | – | – | – |
| SNRPG | 1 | -1.31 | -3.4 | – | – | – |
| RpL5 | 1 | -5.01 | -2.99 | – | – | reduced secretion |
| Nepl18 | 1 | 0.27 | 0.39 | – | – | – |
| HDAC3 | 1 | 0.32 | -0.14 | – | – | – |
| indra | 1 | 0.32 | 0.27 | – | – | – |
| fd3F + CR42499 | 1 | 0.6 | 0.39 | – | – | – |
| fd3F + CR42499 | 2 | 0.49 | 0.42 | – | – | – |
| Urod | 1 | 0.45 | 0.47 | – | – | – |
| CG12861 | 1 | 0.31 | 0.26 | – | – | – |
| CG12861 | 2 | 0.02 | 0.34 | – | – | – |
| ImpE1 | 1 | 0.24 | 0.33 | – | – | – |
| ImpE1 | 2 | 0.22 | 0.18 | – | – | – |
| CG31300 | 1 | 0.3 | 0.28 | – | – | – |
| Gr22a | 1 | -1.29 | 0.16 | – | – | – |
| ThrRS | 1 | -0.03 | 0.07 | – | – | – |
| CG30087 | 1 | -0.16 | -0.34 | – | – | – |
| Nup107 | 1 | -1.68 | -0.95 | – | – | reduced secretion |
| CG15286 | 1 | -0.01 | 0.15 | – | – | – |
| CR30409 | 1 | 0.27 | -0.52 | – | – | – |
| CG11927 | 1 | 0.34 | 0.32 | – | – | – |
| RpL28 + snoRNA:Or-CD12 | 1 | -2.55 | -0.94 | – | – | reduced secretion |
| Nup153 | 1 | -4.57 | 0.23 | -0.19 | -3.91 | reduced secretion |
| NKCC | 1 | 0.54 | 0.58 | – | – | – |
| NKCC | 2 | 0.1 | 0.21 | – | – | – |
| CG13679 | 1 | 0.15 | 0.44 | 0.04 | 0.52 | – |
| CG13679 | 2 | -1.23 | -0.39 | – | – | – |
